# Reference: publication PMC5996148
# Protein sequences, listed by entry. Tags and fused reporters are not part of them. Lines headed by an entry give the natural chain unless they say otherwise; changes in a name come on top.
# UniProt Q96JL9: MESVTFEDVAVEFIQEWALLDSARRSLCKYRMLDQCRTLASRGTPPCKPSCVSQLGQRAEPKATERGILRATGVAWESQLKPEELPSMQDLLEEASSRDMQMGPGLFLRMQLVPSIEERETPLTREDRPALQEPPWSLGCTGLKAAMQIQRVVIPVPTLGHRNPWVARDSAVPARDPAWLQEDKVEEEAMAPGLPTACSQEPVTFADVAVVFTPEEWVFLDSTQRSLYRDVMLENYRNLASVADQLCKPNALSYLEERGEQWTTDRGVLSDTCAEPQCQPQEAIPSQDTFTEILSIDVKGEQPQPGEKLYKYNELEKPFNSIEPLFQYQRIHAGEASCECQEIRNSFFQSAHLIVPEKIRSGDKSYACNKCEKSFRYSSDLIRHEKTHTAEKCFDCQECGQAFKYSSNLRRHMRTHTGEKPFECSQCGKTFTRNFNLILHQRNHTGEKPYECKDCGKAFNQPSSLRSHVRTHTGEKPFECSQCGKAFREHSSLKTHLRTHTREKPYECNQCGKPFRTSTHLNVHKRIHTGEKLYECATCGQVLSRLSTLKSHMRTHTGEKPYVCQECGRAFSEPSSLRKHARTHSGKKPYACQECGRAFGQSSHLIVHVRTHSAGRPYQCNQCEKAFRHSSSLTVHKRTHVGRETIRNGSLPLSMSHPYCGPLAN
# UniProt Q8TF39: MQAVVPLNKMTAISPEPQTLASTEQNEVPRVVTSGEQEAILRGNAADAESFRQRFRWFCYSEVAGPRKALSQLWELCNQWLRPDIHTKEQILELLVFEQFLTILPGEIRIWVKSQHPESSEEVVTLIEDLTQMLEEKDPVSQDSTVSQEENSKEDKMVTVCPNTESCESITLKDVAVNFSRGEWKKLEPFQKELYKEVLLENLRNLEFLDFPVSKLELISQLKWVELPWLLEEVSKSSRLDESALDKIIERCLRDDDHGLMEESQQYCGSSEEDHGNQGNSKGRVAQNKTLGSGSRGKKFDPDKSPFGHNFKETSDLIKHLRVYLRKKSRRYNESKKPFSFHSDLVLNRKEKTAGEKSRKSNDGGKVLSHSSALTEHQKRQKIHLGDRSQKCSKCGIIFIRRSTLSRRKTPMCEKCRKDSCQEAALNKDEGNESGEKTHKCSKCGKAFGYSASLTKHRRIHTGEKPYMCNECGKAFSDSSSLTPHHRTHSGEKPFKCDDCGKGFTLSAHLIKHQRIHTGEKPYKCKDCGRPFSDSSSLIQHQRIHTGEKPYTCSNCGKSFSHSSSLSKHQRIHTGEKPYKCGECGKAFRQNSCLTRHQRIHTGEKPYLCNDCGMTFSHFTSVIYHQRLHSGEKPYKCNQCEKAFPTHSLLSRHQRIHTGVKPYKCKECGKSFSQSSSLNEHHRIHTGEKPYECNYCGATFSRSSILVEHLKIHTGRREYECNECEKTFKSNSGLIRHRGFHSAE
# The list shows a part of the results. For some assays here: The exact form of the protein is not confirmed.
# Tests used:
# Assay in all cases: protein microarray (ProtoArray v5.0), streptavidin-Alexa Fluor 647
# Conditions in all cases: 3'-biotin; 20 mM Tris (pH 7.5), 5 mM MgCl2, 100 mM KCl, 0.1% Tween-20, A/T-rich and random oligonucleotide blockers; temperature not stated; high values mean tight binding
# [1] = test system: ZBTB25 (human)
# [2] = test system: ZBTB8OS (human)
# [3] = test system: ZMYM6 (human)
# [4] = test system: ZNF174 (human)
# [5] = test system: ZNF3 (human)
# [6] = target: ZNF333 (UniProt Q96JL9)
# [7] = target: ZNF483 (UniProt Q8TF39)
# [8] = test system: ZNF616 (human)
# [9] = test system: ZNF695 (human)
# [10] = test system: ZNF718 (human)
# [11] = test system: ZNF765 (human)
# [12] = test system: ZSCAN18 (human)
# [13] = target: T1, ZW10 (UniProt O43264)
# T1 sequence: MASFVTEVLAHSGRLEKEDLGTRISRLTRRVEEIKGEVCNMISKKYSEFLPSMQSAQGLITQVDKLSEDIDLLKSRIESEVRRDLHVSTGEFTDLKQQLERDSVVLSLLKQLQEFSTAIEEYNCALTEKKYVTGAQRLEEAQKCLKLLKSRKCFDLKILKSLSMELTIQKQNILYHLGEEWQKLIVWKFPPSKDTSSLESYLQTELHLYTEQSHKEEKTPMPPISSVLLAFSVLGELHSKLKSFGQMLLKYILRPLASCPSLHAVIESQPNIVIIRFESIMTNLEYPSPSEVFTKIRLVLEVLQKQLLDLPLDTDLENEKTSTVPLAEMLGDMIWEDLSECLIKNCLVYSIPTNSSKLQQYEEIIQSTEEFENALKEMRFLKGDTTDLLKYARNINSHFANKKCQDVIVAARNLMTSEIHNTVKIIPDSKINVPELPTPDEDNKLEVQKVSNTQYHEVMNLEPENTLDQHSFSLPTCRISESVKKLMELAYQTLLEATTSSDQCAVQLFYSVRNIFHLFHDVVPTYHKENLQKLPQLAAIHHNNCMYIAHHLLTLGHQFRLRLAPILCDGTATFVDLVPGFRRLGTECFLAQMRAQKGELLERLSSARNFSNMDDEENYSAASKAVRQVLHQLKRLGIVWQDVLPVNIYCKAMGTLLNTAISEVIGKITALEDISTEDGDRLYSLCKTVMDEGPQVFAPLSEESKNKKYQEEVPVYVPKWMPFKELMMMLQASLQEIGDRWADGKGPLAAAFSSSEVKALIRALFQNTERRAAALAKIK
# [14] = target: T2, ZWINT (UniProt O95229)
# T2 sequence: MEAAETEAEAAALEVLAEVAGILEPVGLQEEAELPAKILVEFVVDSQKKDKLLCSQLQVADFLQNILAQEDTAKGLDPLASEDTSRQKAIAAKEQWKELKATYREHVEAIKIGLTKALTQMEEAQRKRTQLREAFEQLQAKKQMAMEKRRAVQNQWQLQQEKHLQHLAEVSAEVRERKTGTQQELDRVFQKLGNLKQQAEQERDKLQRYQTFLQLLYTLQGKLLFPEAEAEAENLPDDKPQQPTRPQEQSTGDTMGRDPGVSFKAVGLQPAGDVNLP
# [15] = test system: Zinc finger BED domain-containing protein 1 (human)
# [16] = test system: Zinc finger and SCAN domain-containing protein 2 (human)
# [17] = test system: Zinc finger protein 655 (human)
# [18] = test system: Zinc finger protein castor homolog 1 (human)
# [19] = test system: Zinc transporter 7 (human)
# [20] = test system: cAMP-dependent protein kinase inhibitor gamma (human)
sequence,measurement,setting,value
GGTGACAGGGGTATGGGGAGGGG [G4-2 biotinylated (Ct1)],binding signal,[1],-0.385 z-score
same,binding signal,[2],-0.399 z-score
same,binding signal,[3],-0.398 z-score
same,binding signal,[4],-0.387 z-score
same,binding signal,[5],-0.395 z-score
same,binding signal,[6],-0.389 z-score
same,binding signal,[7],-0.396 z-score
same,binding signal,[8],-0.387 z-score
same,binding signal,[9],-0.397 z-score
same,binding signal,[10],-0.377 z-score
same,binding signal,[11],-0.375 z-score
same,binding signal,[12],-0.399 z-score
same,binding signal,[13],-0.372 z-score
same,binding signal,[14],-0.385 z-score
same,binding signal,[15],-0.396 z-score
same,binding signal,[16],-0.386 z-score
same,binding signal,[17],-0.398 z-score
same,binding signal,[18],-0.403 z-score
same,binding signal,[19],-0.366 z-score
same,binding signal,[20],-0.403 z-score

# Laid out differently: entries from further up.
sequence	measurement	setting	value
GGTGACAGGGGTATGGGGAGGGG [G4-2 biotinylated (Ct1)]	binding signal	[12]	-0.399 z-score
same	binding signal	[13]	-0.372 z-score
